Reference: PubChem BioAssay AID662 (National Center for Advancing Translational Sciences (NCATS), 2007)
This is one part of the list. Shown are side measurements of this screen, not its main read-out; they come without a call. The list favours compounds with an active or inconclusive main result. Words in brackets tell the shape of the fitted curve; partial curves, single points and poor fits give uncertain potencies.

assay: Cell signaling CRE-BLA (Fsk stim); settings: CHO CRE-bla reporter (cAMP response element driving beta-lactamase), forskolin EC10, beta-lactamase ratio; measured here: 460 nm blue channel
How it was run: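 Titrated compounds plus EC10 NKH 477 on CHO CRE-bla cells, 3 h, 37 °C. CCF4, 2 h RT. Ratio 460/530 nm → AC50.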

Row | SMILES | AC50
1 | CCC1Sc2ccccc2N(CC(=O)NCc2ccc3c(c2)OCO3)C1=O (stereo not drawn) | 0.00631 µM [falling, full curve, poor fit]
2 | O=C1CC(N2CCN(c3ccccc3F)CC2)C(=O)N1c1ccc2c(c1)OCCO2 (stereo not drawn) | 0.126 µM [falling, full curve, poor fit]
3 | c1ccc2c(c1)nc(NCC1CCCO1)c1nnnn12 (stereo not drawn) | 10 µM [rising, single point]
4 | CNc1ccnc(-c2c(C)noc2C)n1 | 3.98 µM [rising, single point]
5 | O=C(CSc1nc2ccccc2c(=O)[nH]1)N1CCCCC1 | 12.6 µM [rising, single point]
6 | O=C(Nc1cccc(Cl)c1)N1CCN(c2ncccn2)CC1 | 12.6 µM [rising, partial curve]
7 | NC(=O)/N=N/C(N)=O | 2.51 µM [rising, full curve]
8 | CSc1nnc2c3c4c(sc3nc(-n3nc(C)cc3C)n12)COC(C)(C)C4 | 12.6 µM [rising, single point]
9 | Cc1cc(C)nc(-n2nc(C)c(Sc3ccc(F)cc3)c2N)n1 | 2 µM [rising, partial curve]
10 | CCOC(=O)C1CCCN(C(=O)Cn2sc3nc(C)cc(C)c3c2=O)C1 (stereo not drawn) | 25.1 µM [falling, single point]
11 | COc1cc2c(cc1OC)C(C)N(C(=O)CCN1C(=O)C3C4C=CC(C4)C3C1=O)CC2 (stereo not drawn) | 0.01 µM [falling, full curve, poor fit]
12 | COc1ccc(S(=O)(=O)N(CCCN2CCOCC2)Cc2ccc(OC)c(OC)c2)cc1 | 2.51 µM [rising, single point]
13 | O=c1cc(CSc2nc3cc(Cl)ccc3o2)nc2sccn12 | 10 µM [rising, partial curve]
14 | Clc1ccc2nc(CSc3nnc(-c4c[nH]c5ccccc45)o3)cn2c1 | 1.58 µM [rising, full curve, poor fit]
15 | CCN(C(=O)CCc1nc(-c2ccc(OC)cc2)no1)c1cc(OC)ccc1OC | 25.1 µM [rising, partial curve]
16 | O=C(COc1ccc(Cl)cc1Cl)Nc1ccccn1 | 1.58 µM [rising, partial curve, poor fit]
17 | Cn1cc(-c2nc3cncnc3n(CCN)c2=O)c2ccccc21 | 10 µM [rising, partial curve]
18 | CC1(C)C(=O)Nc2ccccc2N1C(=O)COc1ncnc2ccccc12 | 5.01 µM [falling, single point]
19 | CCc1cc2c(-c3ccccc3)cc(=O)oc2c(CN2CCOCC2)c1O | 1.26 µM [rising, full curve]
20 | COc1ccc(Cn2nnnc2C(c2cccs2)N2CCN(c3ccccc3)CC2)cc1 (stereo not drawn) | 25.1 µM [falling, single point]
21 | CCCn1c(NC(=O)c2ccc(C)cc2)nc2ccccc21 | 12.6 µM [falling, single point]
22 | O=C(Cn1c(=O)n(-c2ccccc2)c(=O)c2sccc21)N1CCCC1 | 0.2 µM [falling, full curve]

Fetched by compound from the entries so far (three):
Row | SMILES | AC50
9 | Cc1cc(C)nc(-n2nc(C)c(Sc3ccc(F)cc3)c2N)n1 | 2 µM [rising, partial curve]
22 | O=C(Cn1c(=O)n(-c2ccccc2)c(=O)c2sccc21)N1CCCC1 | 0.2 µM [falling, full curve]
2 | O=C1CC(N2CCN(c3ccccc3F)CC2)C(=O)N1c1ccc2c(c1)OCCO2 (stereo not drawn) | 0.126 µM [falling, full curve, poor fit]

Remaining list, next part.

Row | SMILES | AC50
23 | CCOc1ccc(OCC)c(NC(=O)C2CCN(S(=O)(=O)c3cccc4nonc34)CC2)c1 | 0.0251 µM [falling, full curve]
24 | COC(=O)C1=C(C)Nc2nnnn2C1c1cc(OC)ccc1OC (stereo not drawn) | 0.316 µM [rising, full curve]
25 | CN(CCNC(=O)c1ccc(N2CCCC2=O)cc1)CCc1ccccc1 | 10 µM [falling, partial curve]
26 | CCn1c(=S)sc2c(=O)n(-c3ccccc3)c(SC)nc21 | 10 µM [rising, partial curve]
27 | CCNC(=O)c1ccc2c(c1)S(=O)(=O)c1ccccc1C2=O | 10 µM [rising, partial curve]
28 | COc1ccccc1N(CC(=O)NCCSC(C)(C)C)S(C)(=O)=O | 0.00794 µM [falling, full curve, poor fit]
29 | CC1=Nc2ncnn2C(c2ccccc2)/C1=N\O (stereo not drawn) | 20 µM [falling, partial curve, poor fit]
30 | CC(C)(C)c1ccc([C@@H](O)CCCN2CCC(C(O)(c3ccccc3)c3ccccc3)CC2)cc1 | 12.6 µM [falling, single point]
31 | CC(C)(C)NC(=O)CSc1ncnc2c1nnn2Cc1ccccc1Cl | 5.01 µM [falling, partial curve]
32 | CCCS(=O)(=O)NCCc1cc2c(OC)ccc(OC)c2[nH]c1=O | 2.51 µM [falling, single point]
33 | Cc1cc(C(=O)NCCCn2ccnc2)sc1-c1ccccc1 | 0.00316 µM [falling, full curve, poor fit]
34 | COC(=O)c1ccc(C(NC(=O)OCc2ccccc2)/C(=C/[C@@H](C)C(=O)NCc2ccc(-c3ccccc3)cc2)c2cccnc2)cc1 (stereo partly drawn) | 12.6 µM [falling, single point]
35 | CN1C(=O)C(O)(C2COC(C)(C)CC2=O)c2cc(Br)ccc21 (stereo not drawn) | 12.6 µM [rising, single point]
36 | COc1ccc(-c2ccc(=O)n(CC(=O)Nc3cccc(O)c3)n2)cc1OC | 12.6 µM [rising, partial curve]
37 | Cc1nnc2c(-c3ccccc3)nc3ccccc3n12 | 5.01 µM [rising, partial curve]
38 | CN1CCN(c2ncnc3ccc(-c4ccc(C(=O)N(C)C)cc4)cc23)CC1 | 3.16 µM [rising, full curve, poor fit]
39 | Nc1nsc2ccccc12 | 1.58 µM [falling, full curve]
40 | Cc1nc2nc(SCC(=O)NCc3ccco3)nn2c(C)c1Cc1c(F)cccc1Cl | 20 µM [rising, single point]
41 | COc1cc2nc(SCC(=O)NCCc3ccccc3)n(Cc3ccco3)c(=O)c2cc1OC | 10 µM [rising, partial curve]
42 | COc1cccc(C2C3=C(CCCC3=O)Nc3nc4ccccc4n32)c1OC (stereo not drawn) | 0.02 µM [rising, full curve, poor fit]
43 | CCOC(=O)C1CCCN(C(=O)c2ccccc2Oc2ccccc2)C1 (stereo not drawn) | 1 µM [falling, partial curve, poor fit]
